Assay results published in paper PMC9870992.

The chains behind the UniProt entries cited, without tags or fusion partners.
UniProt P78347: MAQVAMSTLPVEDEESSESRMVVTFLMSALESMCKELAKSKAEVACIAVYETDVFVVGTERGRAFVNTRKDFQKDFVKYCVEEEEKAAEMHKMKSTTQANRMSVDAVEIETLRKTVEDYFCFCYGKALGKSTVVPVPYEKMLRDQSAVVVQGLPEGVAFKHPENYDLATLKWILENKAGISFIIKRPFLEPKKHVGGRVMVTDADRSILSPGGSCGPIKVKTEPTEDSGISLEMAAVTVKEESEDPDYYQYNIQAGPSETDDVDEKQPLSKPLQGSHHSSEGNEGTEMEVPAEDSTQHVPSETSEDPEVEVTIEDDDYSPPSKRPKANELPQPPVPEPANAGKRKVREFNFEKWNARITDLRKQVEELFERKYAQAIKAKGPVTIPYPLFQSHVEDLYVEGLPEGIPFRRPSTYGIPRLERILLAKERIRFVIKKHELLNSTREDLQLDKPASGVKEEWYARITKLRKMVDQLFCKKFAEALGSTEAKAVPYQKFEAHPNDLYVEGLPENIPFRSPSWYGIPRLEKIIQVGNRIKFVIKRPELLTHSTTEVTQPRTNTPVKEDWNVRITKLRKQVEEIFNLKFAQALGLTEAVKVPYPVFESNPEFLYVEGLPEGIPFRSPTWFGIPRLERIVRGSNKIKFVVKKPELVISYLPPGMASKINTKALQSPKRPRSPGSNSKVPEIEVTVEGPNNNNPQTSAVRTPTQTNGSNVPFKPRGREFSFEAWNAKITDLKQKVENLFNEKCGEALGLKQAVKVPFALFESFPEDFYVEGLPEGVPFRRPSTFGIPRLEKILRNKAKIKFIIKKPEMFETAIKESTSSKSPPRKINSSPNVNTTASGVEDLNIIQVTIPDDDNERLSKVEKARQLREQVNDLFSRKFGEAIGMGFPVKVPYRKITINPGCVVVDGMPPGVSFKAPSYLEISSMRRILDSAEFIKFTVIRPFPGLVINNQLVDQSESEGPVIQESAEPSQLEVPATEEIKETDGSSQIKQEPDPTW

Target: TFII-I-TurboID-Myc (UniProt P78347)
Assay: proximity labelling; Bio-ID in HEK293T transfected with TurboID fusions; 500 μM biotin for 1 h; endogenous TRIM24 immunoprecipitated and blotted with Streptavidin-HRP

B1: endogenous TRIM24 (protein, UniProt O15164 1-1050)
chain: MEVAVEKAVAAAAAASAAASGGPSAAPSGENEAESRQGPDSERGGEAARLNLLDTCAVCHQNIQSRAPKLLPCLHSFCQRCLPAPQRYLMLPAPMLGSAETPPPVPAPGSPVSGSSPFATQVGVIRCPVCSQECAERHIIDNFFVKDTTEVPSSTVEKSNQVCTSCEDNAEANGFCVECVEWLCKTCIRAHQRVKFTKDHTVRQKEEVSPEAVGVTSQRPVFCPFHKKEQLKLYCETCDKLTCRDCQLLEHKEHRYQFIEEAFQNQKVIIDTLITKLMEKTKYIKFTGNQIQNRIIEVNQNQKQVEQDIKVAIFTLMVEINKKGKALLHQLESLAKDHRMKLMQQQQEVAGLSKQLEHVMHFSKWAVSSGSSTALLYSKRLITYRLRHLLRARCDASPVTNNTIQFHCDPSFWAQNIINLGSLVIEDKESQPQMPKQNPVVEQNSQPPSGLSSNQLSKFPTQISLAQLRLQHMQQQVMAQRQQVQRRPAPVGLPNPRMQGPIQQPSISHQQPPPRLINFQNHSPKPNGPVLPPHPQQLRYPPNQNIPRQAIKPNPLQMAFLAQQAIKQWQISSGQGTPSTTNSTSSTPSSPTITSAAGYDGKAFGSPMIDLSSPVGGSYNLPSLPDIDCSSTIMLDNIVRKDTNIDHGQPRPPSNRTVQSPNSSVPSPGLAGPVTMTSVHPPIRSPSASSVGSRGSSGSSSKPAGADSTHKVPVVMLEPIRIKQENSGPPENYDFPVVIVKQESDEESRPQNANYPRSILTSLLLNSSQSSTSEETVLRSDAPDSTGDQPGLHQDNSSNGKSEWLDPSQKSPLHVGETRKEDDPNEDWCAVCQNGGELLCCEKCPKVFHLSCHVPTLTNFPSGEWICTFCRDLSKPEVEYDCDAPSHNSEKKKTEGLVKLTPIDKRKCERLLLFLYCHEMSLAFQDPVPLTVPDYYKIIKNPMDLSTIKKRLQEDYSMYSKPEDFVADFRLIFQNCAEFNEPDSEVANAGIKLENYFEELLKNLYPEKRFPKPEFRNESEDNKFSDDSDDDFVQPRKKRLKSIEERQLLK
- binding: binds

No constants are given. Whether binding was seen depends on the method and setting. In cells and extracts the contact can be indirect. Here binding means that the protein was enriched with, or labelled near, the bait; the list need not be complete.
